## Results from one PubChem assay

Source: PubChem BioAssay AID504749 (NCATS, 2011).

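Malaria parasite (P. falciparum) lines kept in red blood cells; parasite DNA is measured by SYBR Green fluorescence after lysis, 72 h after compound addition. Each compound was titrated across a series from about 0.000037 to 29 µM. The number is the fitted AC50, the concentration giving a half-maximal change in signal; a lower value means higher potency, whether the curve shows a decrease or an increase. Calls follow the curve class and fit quality: every row here is inconclusive, covering signal-raising curves and weak, poorly fitted, partial or highest-dose-only inhibition curves.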

Values are in µM. Every entry below has the call inconclusive. These entries are mostly ones the record files as inconclusive; other results of the assay are not listed here. A potency from a partial, single-point or poor curve is only a rough figure.

| SMILES | condition | fitted potency (µM) | curve |
|---|---|---|---|
| `COc1ccc(CCN(C)CCCC(C#N)(c2cc(OC)c(OC)c(OC)c2)C(C)C)cc1OC` (stereo not drawn) | CP329 | 15.1 | inhibitor, single point |
| `COc1ccc(CCN(C)CCCC(C#N)(c2cc(OC)c(OC)c(OC)c2)C(C)C)cc1OC` (stereo not drawn) | CP286 | 11.22 | inhibitor, partial curve |
| `COc1ccc(CCN(C)CCCC(C#N)(c2cc(OC)c(OC)c(OC)c2)C(C)C)cc1OC` (stereo not drawn) | ECU | 11.22 | inhibitor, partial curve |
| `COc1ccc(CCN(C)CCCC(C#N)(c2cc(OC)c(OC)c(OC)c2)C(C)C)cc1OC` (stereo not drawn) | CP297 | 13.46 | inhibitor, partial curve, poor fit |
| `COc1ccc(CCN(C)CCCC(C#N)(c2cc(OC)c(OC)c(OC)c2)C(C)C)cc1OC` (stereo not drawn) | DIV30 | 13.46 | inhibitor, single point |
| `COc1ccc(CCN(C)CCCC(C#N)(c2cc(OC)c(OC)c(OC)c2)C(C)C)cc1OC` (stereo not drawn) | P93_24 | 5.012 | inhibitor, partial curve |
| `COc1ccc(CCN(C)CCCC(C#N)(c2cc(OC)c(OC)c(OC)c2)C(C)C)cc1OC` (stereo not drawn) | CP256 | 6.31 | inhibitor, partial curve |
| `COc1ccc(CCN(C)CCCC(C#N)(c2cc(OC)c(OC)c(OC)c2)C(C)C)cc1OC` (stereo not drawn) | DFO2036 | 4.467 | inhibitor, partial curve, poor fit |
| `COc1ccc(CCN(C)CCCC(C#N)(c2cc(OC)c(OC)c(OC)c2)C(C)C)cc1OC` (stereo not drawn) | HB3 | 11.22 | inhibitor, single point |
| `COc1ccc(CCN(C)CCCC(C#N)(c2cc(OC)c(OC)c(OC)c2)C(C)C)cc1OC` (stereo not drawn) | GB4 | 7.569 | inhibitor, partial curve |
| `COc1ccc(CCN(C)CCCC(C#N)(c2cc(OC)c(OC)c(OC)c2)C(C)C)cc1OC` (stereo not drawn) | DIV14 | 13.46 | inhibitor, partial curve |
| `COc1ccc(CCN(C)CCCC(C#N)(c2cc(OC)c(OC)c(OC)c2)C(C)C)cc1OC` (stereo not drawn) | TAB109 | 5.623 | inhibitor, partial curve |
| `COc1ccc(CCN(C)CCCC(C#N)(c2cc(OC)c(OC)c(OC)c2)C(C)C)cc1OC` (stereo not drawn) | CP260 | 8.912 | inhibitor, partial curve |
| `COc1ccc(CCN(C)CCCC(C#N)(c2cc(OC)c(OC)c(OC)c2)C(C)C)cc1OC` (stereo not drawn) | JCK | 7.943 | inhibitor, partial curve, poor fit |
| `COc1ccc(CCN(C)CCCC(C#N)(c2cc(OC)c(OC)c(OC)c2)C(C)C)cc1OC` (stereo not drawn) | P94_40 | 11.22 | inhibitor, single point |
| `COc1ccc(CCN(C)CCCC(C#N)(c2cc(OC)c(OC)c(OC)c2)C(C)C)cc1OC` (stereo not drawn) | PC26 | 7.569 | inhibitor, partial curve |
| `COc1ccc(CCN(C)CCCC(C#N)(c2cc(OC)c(OC)c(OC)c2)C(C)C)cc1OC` (stereo not drawn) | CP325 | 9.528 | inhibitor, partial curve |
| `COc1ccc(CCN(C)CCCC(C#N)(c2cc(OC)c(OC)c(OC)c2)C(C)C)cc1OC` (stereo not drawn) | CP247 | 11.22 | inhibitor, partial curve |
| `COc1ccc(CCN(C)CCCC(C#N)(c2cc(OC)c(OC)c(OC)c2)C(C)C)cc1OC` (stereo not drawn) | N140 | 7.943 | inhibitor, partial curve |
| `COc1ccc(CCN(C)CCCC(C#N)(c2cc(OC)c(OC)c(OC)c2)C(C)C)cc1OC` (stereo not drawn) | CP268 | 6.746 | inhibitor, partial curve, poor fit |
| `COc1cc([C@@H]2c3cc4c(cc3[C@H](O)[C@H]3COC(=O)[C@H]23)OCO4)cc(OC)c1OC` | CP194 | 15.1 | inhibitor, single point |
| `COc1cc([C@@H]2c3cc4c(cc3[C@H](O)[C@H]3COC(=O)[C@H]23)OCO4)cc(OC)c1OC` | CP211 | 19.01 | inhibitor, single point |
| `COc1cc([C@@H]2c3cc4c(cc3[C@H](O)[C@H]3COC(=O)[C@H]23)OCO4)cc(OC)c1OC` | CP238 | 10 | inhibitor, single point |
| `COc1cc([C@@H]2c3cc4c(cc3[C@H](O)[C@H]3COC(=O)[C@H]23)OCO4)cc(OC)c1OC` | JCK | 12.59 | inhibitor, single point |
| `COc1cc([C@@H]2c3cc4c(cc3[C@H](O)[C@H]3COC(=O)[C@H]23)OCO4)cc(OC)c1OC` | CP217 | 11.22 | inhibitor, single point |
| `COc1cc([C@@H]2c3cc4c(cc3[C@H](O)[C@H]3COC(=O)[C@H]23)OCO4)cc(OC)c1OC` | CP329 | 19.01 | inhibitor, single point |
| `COc1cc([C@@H]2c3cc4c(cc3[C@H](O)[C@H]3COC(=O)[C@H]23)OCO4)cc(OC)c1OC` | CP185 | 14.13 | inhibitor, single point |
| `COc1cc([C@@H]2c3cc4c(cc3[C@H](O)[C@H]3COC(=O)[C@H]23)OCO4)cc(OC)c1OC` | CP192 | 21.33 | inhibitor, single point |
| `COc1cc([C@@H]2c3cc4c(cc3[C@H](O)[C@H]3COC(=O)[C@H]23)OCO4)cc(OC)c1OC` | CP252 | 10 | inhibitor, single point |

The first 2 entries again:

For COc1ccc(CCN(C)CCCC(C#N)(c2cc(OC)c(OC)c(OC)c2)C(C)C)cc1OC (stereo not drawn) [CP329] the result was fitted potency 15.1 µM (inhibitor, single point).
For COc1ccc(CCN(C)CCCC(C#N)(c2cc(OC)c(OC)c(OC)c2)C(C)C)cc1OC (stereo not drawn) [CP286] the result was fitted potency 11.22 µM (inhibitor, partial curve).